Laboratory results from the supplement of paper PMC11006884.
Most of the targets with a hit are listed elsewhere, so they are rarer here than in the full data. The data scatter; read single values as rough. The entries are a selection whose mix differs from that of the whole data set.

Protein sequences, listed by entry. Tags and fused reporters are not part of them. Lines headed by an entry give the natural chain unless they say otherwise; changes in a name come on top.
UniProt P14866: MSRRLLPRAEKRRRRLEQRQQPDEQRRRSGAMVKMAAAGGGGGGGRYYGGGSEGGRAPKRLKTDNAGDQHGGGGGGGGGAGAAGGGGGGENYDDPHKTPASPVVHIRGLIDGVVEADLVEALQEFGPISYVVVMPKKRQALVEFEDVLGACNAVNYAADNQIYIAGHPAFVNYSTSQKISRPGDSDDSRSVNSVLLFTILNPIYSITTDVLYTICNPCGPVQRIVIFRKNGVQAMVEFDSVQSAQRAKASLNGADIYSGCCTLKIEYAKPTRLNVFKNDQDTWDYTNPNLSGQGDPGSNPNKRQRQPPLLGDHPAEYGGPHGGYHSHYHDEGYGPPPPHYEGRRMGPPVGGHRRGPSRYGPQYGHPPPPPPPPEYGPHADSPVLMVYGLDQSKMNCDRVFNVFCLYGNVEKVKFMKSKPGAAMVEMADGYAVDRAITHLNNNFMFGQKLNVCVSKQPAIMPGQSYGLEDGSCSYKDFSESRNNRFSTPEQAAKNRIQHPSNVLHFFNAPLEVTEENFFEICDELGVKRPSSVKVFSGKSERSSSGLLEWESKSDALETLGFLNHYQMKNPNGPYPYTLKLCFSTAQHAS
UniProt P07814: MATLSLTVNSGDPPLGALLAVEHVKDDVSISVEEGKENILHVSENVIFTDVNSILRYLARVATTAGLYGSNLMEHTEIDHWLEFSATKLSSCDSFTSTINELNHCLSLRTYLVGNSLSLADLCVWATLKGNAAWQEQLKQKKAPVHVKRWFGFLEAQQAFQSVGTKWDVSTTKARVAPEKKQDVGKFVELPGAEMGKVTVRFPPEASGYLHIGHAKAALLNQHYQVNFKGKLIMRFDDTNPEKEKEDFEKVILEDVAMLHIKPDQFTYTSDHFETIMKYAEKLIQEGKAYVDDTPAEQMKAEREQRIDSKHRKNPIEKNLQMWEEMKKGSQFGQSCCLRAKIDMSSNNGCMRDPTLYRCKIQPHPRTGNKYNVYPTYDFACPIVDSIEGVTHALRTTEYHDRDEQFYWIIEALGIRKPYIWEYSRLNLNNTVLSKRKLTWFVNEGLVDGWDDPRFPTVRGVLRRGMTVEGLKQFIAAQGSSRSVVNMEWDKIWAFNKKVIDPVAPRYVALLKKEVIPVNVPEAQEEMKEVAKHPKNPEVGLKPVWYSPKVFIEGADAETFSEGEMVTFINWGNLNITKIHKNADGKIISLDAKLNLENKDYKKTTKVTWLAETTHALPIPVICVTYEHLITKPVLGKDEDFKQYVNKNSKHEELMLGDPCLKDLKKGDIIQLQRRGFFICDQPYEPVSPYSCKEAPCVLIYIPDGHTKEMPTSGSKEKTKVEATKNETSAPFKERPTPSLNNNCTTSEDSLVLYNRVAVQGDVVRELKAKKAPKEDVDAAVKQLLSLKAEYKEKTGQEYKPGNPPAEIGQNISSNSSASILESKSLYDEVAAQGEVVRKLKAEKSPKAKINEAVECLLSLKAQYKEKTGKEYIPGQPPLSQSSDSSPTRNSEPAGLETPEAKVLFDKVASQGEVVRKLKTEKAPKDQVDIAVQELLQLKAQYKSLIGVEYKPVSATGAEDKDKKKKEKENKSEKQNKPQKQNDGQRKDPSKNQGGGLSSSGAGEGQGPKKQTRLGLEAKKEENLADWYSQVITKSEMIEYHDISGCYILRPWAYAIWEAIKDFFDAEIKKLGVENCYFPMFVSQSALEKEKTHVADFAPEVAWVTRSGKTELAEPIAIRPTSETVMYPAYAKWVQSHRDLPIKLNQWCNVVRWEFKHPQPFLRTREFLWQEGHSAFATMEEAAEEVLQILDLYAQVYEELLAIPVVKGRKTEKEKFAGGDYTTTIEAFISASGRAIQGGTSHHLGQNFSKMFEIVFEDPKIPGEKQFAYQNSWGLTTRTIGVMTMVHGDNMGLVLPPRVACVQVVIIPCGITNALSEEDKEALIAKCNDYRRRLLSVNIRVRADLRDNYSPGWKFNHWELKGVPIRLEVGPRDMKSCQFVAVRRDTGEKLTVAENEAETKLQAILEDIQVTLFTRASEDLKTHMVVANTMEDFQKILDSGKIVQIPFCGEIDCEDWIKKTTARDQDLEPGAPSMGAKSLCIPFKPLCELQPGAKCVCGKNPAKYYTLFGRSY
UniProt P15924: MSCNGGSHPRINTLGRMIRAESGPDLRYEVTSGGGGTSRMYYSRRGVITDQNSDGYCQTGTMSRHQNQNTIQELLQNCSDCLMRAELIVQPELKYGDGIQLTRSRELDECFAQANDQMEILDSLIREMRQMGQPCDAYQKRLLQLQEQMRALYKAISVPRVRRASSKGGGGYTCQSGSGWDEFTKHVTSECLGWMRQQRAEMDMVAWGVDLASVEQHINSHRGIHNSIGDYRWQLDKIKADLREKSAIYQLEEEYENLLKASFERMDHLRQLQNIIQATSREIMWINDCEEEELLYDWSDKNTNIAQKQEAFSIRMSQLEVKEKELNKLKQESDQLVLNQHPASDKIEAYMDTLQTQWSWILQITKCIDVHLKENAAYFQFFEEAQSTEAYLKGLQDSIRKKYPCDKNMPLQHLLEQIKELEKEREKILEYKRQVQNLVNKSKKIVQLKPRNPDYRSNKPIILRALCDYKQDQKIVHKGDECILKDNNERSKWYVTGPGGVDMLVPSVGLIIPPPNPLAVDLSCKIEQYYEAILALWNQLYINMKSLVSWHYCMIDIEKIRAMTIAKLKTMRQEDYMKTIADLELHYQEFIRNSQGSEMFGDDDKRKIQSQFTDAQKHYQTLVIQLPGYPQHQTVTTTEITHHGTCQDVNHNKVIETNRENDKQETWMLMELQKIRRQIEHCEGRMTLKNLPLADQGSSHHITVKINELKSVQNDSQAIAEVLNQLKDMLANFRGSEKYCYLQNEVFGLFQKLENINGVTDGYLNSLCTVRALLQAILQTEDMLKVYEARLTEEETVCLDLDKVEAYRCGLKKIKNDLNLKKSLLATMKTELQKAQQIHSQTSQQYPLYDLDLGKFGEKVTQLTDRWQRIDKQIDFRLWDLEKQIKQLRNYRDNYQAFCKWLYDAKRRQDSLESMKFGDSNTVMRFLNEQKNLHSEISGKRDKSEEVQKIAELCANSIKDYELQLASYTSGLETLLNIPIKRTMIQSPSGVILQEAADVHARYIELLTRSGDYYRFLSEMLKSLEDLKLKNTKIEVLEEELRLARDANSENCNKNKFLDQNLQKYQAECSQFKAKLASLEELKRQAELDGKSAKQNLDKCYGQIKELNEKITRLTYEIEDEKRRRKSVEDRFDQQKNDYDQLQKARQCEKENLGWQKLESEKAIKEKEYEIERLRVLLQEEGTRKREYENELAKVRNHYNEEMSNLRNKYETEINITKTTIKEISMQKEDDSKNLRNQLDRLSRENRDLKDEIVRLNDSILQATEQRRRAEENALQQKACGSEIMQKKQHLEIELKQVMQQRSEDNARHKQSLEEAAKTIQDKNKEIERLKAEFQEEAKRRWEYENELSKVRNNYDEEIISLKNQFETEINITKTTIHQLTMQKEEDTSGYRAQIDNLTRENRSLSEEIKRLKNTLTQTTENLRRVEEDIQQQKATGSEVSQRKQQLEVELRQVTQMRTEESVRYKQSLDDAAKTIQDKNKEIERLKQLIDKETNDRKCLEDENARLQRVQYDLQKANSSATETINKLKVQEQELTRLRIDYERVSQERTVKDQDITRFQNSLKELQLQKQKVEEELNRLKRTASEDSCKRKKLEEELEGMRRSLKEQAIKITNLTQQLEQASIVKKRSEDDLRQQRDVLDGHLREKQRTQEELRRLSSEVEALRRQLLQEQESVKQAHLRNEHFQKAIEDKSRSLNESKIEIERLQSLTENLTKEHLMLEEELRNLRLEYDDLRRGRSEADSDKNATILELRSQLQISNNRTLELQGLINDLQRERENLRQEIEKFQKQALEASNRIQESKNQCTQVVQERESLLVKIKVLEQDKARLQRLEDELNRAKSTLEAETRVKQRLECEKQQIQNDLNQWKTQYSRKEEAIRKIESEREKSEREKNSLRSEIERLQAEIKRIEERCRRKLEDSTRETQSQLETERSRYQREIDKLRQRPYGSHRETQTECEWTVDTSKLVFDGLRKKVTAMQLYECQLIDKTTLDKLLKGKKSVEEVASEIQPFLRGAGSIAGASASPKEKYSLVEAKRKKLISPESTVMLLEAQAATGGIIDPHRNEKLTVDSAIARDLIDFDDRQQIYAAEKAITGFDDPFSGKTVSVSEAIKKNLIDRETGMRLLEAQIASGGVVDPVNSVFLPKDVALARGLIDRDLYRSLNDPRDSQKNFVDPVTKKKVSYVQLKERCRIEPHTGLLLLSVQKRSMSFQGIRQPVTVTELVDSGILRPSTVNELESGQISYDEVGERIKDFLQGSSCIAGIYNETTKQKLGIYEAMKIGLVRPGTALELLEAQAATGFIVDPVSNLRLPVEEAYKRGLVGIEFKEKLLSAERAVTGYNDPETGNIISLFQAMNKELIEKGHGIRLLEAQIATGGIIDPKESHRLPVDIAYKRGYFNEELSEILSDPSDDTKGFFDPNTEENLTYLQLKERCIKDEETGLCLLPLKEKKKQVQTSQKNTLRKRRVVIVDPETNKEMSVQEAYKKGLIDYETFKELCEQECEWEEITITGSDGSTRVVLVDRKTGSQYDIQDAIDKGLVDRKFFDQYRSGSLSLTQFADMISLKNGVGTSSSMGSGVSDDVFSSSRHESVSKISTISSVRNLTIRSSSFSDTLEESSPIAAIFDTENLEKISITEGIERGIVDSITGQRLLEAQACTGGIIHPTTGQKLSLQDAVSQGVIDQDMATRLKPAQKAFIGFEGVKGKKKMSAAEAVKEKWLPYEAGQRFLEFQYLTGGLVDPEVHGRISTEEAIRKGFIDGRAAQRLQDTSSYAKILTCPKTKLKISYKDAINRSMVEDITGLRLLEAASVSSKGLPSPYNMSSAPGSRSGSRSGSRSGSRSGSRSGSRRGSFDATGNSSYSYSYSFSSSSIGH
UniProt P11047: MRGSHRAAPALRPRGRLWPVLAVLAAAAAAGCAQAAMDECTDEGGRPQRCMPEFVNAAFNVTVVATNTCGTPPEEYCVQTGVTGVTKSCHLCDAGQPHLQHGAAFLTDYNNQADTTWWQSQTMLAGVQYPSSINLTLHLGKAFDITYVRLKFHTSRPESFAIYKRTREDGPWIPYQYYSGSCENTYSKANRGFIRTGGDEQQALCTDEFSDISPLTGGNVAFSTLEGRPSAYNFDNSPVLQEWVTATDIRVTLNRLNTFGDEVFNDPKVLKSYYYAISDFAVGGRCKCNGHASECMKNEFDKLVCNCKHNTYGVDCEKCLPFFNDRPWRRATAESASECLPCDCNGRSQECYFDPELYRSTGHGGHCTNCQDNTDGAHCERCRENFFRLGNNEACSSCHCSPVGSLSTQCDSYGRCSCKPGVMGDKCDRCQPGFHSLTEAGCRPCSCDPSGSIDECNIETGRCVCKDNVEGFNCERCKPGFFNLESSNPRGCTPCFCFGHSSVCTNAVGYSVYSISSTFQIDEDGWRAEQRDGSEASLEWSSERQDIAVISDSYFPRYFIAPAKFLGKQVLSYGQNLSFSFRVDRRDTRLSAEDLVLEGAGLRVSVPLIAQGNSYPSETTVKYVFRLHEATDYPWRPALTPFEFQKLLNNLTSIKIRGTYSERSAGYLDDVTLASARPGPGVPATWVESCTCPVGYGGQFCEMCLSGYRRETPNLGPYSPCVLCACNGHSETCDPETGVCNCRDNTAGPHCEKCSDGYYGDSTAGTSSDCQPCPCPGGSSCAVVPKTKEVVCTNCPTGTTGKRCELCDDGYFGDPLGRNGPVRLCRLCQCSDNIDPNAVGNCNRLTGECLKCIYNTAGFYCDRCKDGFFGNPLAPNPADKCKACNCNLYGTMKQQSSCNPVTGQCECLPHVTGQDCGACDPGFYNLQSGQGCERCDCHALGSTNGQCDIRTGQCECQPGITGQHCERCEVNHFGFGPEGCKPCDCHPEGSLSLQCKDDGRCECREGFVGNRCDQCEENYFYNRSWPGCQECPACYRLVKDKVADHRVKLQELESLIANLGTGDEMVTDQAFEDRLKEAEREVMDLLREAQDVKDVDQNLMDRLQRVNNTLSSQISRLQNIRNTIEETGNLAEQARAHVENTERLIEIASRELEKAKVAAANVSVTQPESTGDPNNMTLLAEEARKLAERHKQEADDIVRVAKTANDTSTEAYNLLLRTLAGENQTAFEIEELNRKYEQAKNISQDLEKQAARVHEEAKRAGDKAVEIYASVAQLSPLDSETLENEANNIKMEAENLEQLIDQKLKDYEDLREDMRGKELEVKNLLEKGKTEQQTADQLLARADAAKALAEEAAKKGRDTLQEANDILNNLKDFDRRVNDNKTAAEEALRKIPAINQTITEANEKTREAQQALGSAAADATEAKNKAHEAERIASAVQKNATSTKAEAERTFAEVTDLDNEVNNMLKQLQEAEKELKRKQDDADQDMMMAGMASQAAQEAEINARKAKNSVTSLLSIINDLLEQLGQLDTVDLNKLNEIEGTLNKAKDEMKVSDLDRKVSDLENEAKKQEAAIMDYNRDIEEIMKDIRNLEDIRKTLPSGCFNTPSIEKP

The targets below were run with COC(=O)/C=C/c1ccccc1 [methyl cinnamate] (assay: log2 ratio of iodoacetamide-alkyne labeling of the cysteine site, DMSO over compound (competition); higher = stronger covalent engagement of the cysteine by the compound, active = 1 or more). Settings: 500 µM; treatment time 1 h; system: HEK293T cell lysate.
Summary of the method: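 For each cysteine, the log2 competition ratio is mean control-channel reporter intensity over mean compound-channel reporter intensity. HEK293T lysate (2 mg/mL) was exposed to vehicle or electrophile (500 µM, 1 h, ambient temperature), labelled with iodoacetamide alkyne (1 h), clicked to sCIP-TMT reagents, digested overnight with trypsin at 37 °C, streptavidin-enriched and analysed by Orbitrap Eclipse LC-MS/MS with FAIMS and FragPipe. Cysteines quantified in only one of three replicates, each with duplicate channels, were excluded.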

log2 ratio of iodoacetamide-alkyne labeling, inactive:
HNRNPL C452 (UniProt P14866) 0.161
LTA4H C8 (UniProt P09960) 0.181
ACAA1 C123 (UniProt P09110) 0.14
EPRS C744 (UniProt P07814) 0.257
EPRS C856 (UniProt P07814) 0.155
EPRS C660 (UniProt P07814) -0.126
DSP C174 (UniProt P15924) 0.462
ACADM C156 (UniProt P11310) 0.342
PFKM C709 (UniProt P08237) -0.0662
DSP C1957 (UniProt P15924) 0.258
UniProt P14618_C424 -0.379
PDIA4 C209 (UniProt P13667) 0.557
PRKCSH C471 (UniProt P14314) -0.0369
EEF2 C369 (UniProt P13639) 0.106
CKMT1A C62 (UniProt P12532) 0.228
DSP C110 (UniProt P15924) -0.245
CYC1 C271 (UniProt P08574) 0.228
TOP2A C455 (UniProt P11388) 0.237
DSP C57 (UniProt P15924) 0.298
PLS3 C463 (UniProt P13797) 0.728
SNRPB C19 (UniProt P14678) 0.231
UniProt P10155_C520 -0.0851
UniProt P0CG30_C105 0.156
LAMC1 C351 (UniProt P11047) 0.11
HNRNPL C261 (UniProt P14866) -0.317
HSPD1 C237 (UniProt P10809) 0.247
PARP1 C24 (UniProt P09874) 0.0337
IGF2R C2232 (UniProt P11717) 0.42
PDHA1 C261 (UniProt P08559) -0.0503
DSP C1069 (UniProt P15924) 0.412
PRKCSH C500 (UniProt P14314) 0.579
SP1 C68 (UniProt P08047) 0.434
PRKAR1A C362 (UniProt P10644) 0.151
LAMB1 C1785 (UniProt P07942) 0.274
TPR C1068 (UniProt P12270) 0.0972
CLTB C199 (UniProt P09497) 0.619
HSP90AA1 C598 (UniProt P07900) -0.112
UniProt P08240_C363 -0.13

3 successive records from above, for reference:
log2 ratio of iodoacetamide-alkyne labeling, inactive:
LTA4H C8 (UniProt P09960) 0.181
ACAA1 C123 (UniProt P09110) 0.14
EPRS C744 (UniProt P07814) 0.257
